According to the supplement of paper PMC5355238:
Where a name gives a salt, the structure may show the parent alone. ± gives the standard deviation of the averaged measurements. The list shows a part of the results. Repeats are few or missing, and single values can be far off.

System: Reh
Assay: S-phase gammaH2AX median, Z-score vs plate median (drug alone); higher = more S-phase DNA damage
Conditions: MK1775 concentration 0 nM; 10 µM; 4 h

Compound	S-phase gammaH2AX median (Z-score)
NC(=O)c1ccc(OCC(O)CN2CC=C(c3ccc(F)cc3)CC2)cc1 (stereo unspecified)	0.0601
C[N+]1(C)CCOC(O)(c2ccc(-c3ccc(C4(O)C[N+](C)(C)CCO4)cc3)cc2)C1 (stereo unspecified) [Hemicholinium-3]	0
COc1ccc(-n2nc(C(F)(F)F)cc2-c2ccc(Cl)cc2)cc1	0.0601
Nc1ccncc1 [4-Aminopyridine]	-0.0932
COc1cc(C=C(C#N)C#N)cc(O)c1O [Tyrphostin AG 34]	0.0868
CO[C@H]1CC=C2CCN3CCC4=C(CC(=O)OC4)[C@]23C1 [Dihydro-beta-erythroidine hydrobromide]	-0.0787
Cc1[nH]c2ccc(O)cc2c1CCN [2-Methyl-5-hydroxytryptamine maleate]	-0.423
C=CCN1CCc2cccc3c2[C@H]1Cc1ccc(O)c(O)c1-3 [R(-)-N-Allylnorapomorphine hydrobromide]	0.173
COc1ccc(C(=O)N2CCCC2=O)cc1 [Aniracetam]	-0.0621
CCCCCCCCCCCCCC(=O)O[C@@H]1[C@@H](C)[C@@]2(O)[C@@H](C=C(CO)C[C@]3(O)C(=O)C(C)=C[C@@H]23)[C@@H]2C(C)(C)[C@]12OC(C)=O [Phorbol 12-myristate 13-acetate]	-0.284
O=C(O)CCCc1ccc(N(CCCl)CCCl)cc1 [Chlorambucil]	0.596
NCC(O)c1cc(O)c(O)cc1F (stereo unspecified) [6-Fluoronorepinephrine hydrochloride]	0.0155
CCS(=O)(=O)Nc1cccc(C(=C2CCCCC2)c2cnc[nH]2)c1	-0.0777
CC1=C[C@@H]2c3cccc4[nH]cc(c34)C[C@H]2N(C)C1 [Agroclavine]	0.173
O=c1[nH]c2ccccc2n1CCCN1CCC(n2c(=O)[nH]c3cc(Cl)ccc32)CC1 [Domperidone]	-0.0283
C=CCN1CC[C@]23c4c5ccc(O)c4O[C@H]2/C(=N/NC(=O)c2ccccc2)CC[C@@]3(O)[C@H]1C5 [Naloxone benzoylhydrazone]	0.0497
NC(N)=NOCC[C@H](N)C(=O)O [L-Canavanine sulfate]	-0.0699
CCN(CC)C(=O)NC1CC2c3cccc4[nH]cc(c34)CC2N(C)C1 (stereo not drawn) [R(+)-Terguride]	-0.254
CCN(CC)C(=O)N[C@H]1C=C2c3cccc4[nH]cc(c34)C[C@H]2N(C)C1 [R(+)-Lisuride hydrogen maleate]	0.0733
S=C(NC1CCCCC1)N1CCC(c2cnc[nH]2)CC1 [Thioperamide maleate]	0.3
COc1ccc2c(c1)[C@]13CCCC[C@@H]1[C@H](C2)N(C)CC3 [Dextromethorphan hydrobromide monohydrate]	-0.0157
COC[C@H]1OC(=O)c2coc3c2[C@@]1(C)C1=C(C3=O)[C@@H]2CCC(=O)[C@@]2(C)C[C@H]1OC(C)=O [Wortmannin from Penicillium funiculosum]	-0.214
Clc1cnc(Oc2ccc(Oc3ncc(Cl)cc3Cl)cc2)c(Cl)c1	0.16
CNCCc1ccc(O)c(O)c1 [N-Methyldopamine hydrochloride]	0.0283
CC(Cc1ccc(O)cc1)NCC(O)c1cc(O)cc(O)c1 (stereo unspecified) [Fenoterol hydrobromide]	-0.11
Cn1cnc(CCN)c1 [1-Methylhistamine dihydrochloride]	-0.0118

Compound	S-phase gammaH2AX median (Z-score)
C1CCc2nnnn2CC1 [Pentylenetetrazole]	-0.0568
CCCN1CCC[C@@H]2Cc3nc(N)ncc3C[C@H]21 [Quinelorane dihydrochloride]	-0.026
C[C@]12CC[C@@H](O)C[C@@H]1CC[C@@H]1[C@@H]2CC[C@]2(C)C(=O)CC[C@@H]12 [Androsterone]	-0.0485
Cc1ccccc1-n1c(Cn2cnc3c(N)ncnc32)nc2cccc(C)c2c1=O	0.102
CN(N=O)c1ccc(O)c(O)c1 [Me-3,4-dephostatin]	0.0426
C[C@]12CC[C@@H](O)C[C@@H]1CC[C@@H]1[C@@H]2CC[C@]2(C)[C@@H](O)CC[C@@H]12 [5alpha-Androstane-3alpha,17beta-diol]	-0.0466
CC(Cc1ccc(OCC(=O)O)cc1)NCC(O)c1cccc(Cl)c1 (stereo unspecified)	-0.0155
OC1CCCCC1N1CCC(c2ccccc2)CC1 (stereo unspecified) [(?)-Vesamicol hydrochloride]	0
N[C@@H](Cc1ccc(N(CCCl)CCCl)cc1)C(=O)O [Melphalan]	1.62 ± 1.4
C=CCN1C[C@H](C)N([C@H](c2ccc(C(=O)N(CC)CC)cc2)c2cccc(OC)c2)C[C@H]1C	-0.501
N=C(N)NN [Aminoguanidine hydrochloride]	-0.0252
N=C(N)NN [Aminoguanidine hemisulfate]	-0.0621
CC(C)N(CCC(C(N)=O)(c1ccccc1)c1ccccn1)C(C)C (stereo unspecified) [Disopyramide]	-0.022
CC(C)N(CCC(C(N)=O)(c1ccccc1)c1ccccn1)C(C)C (stereo unspecified) [Disopyramide phosphate]	0.0189
C[C@H](N)CN1CCc2ccc(Br)cc21 [VER-3323 hemifumarate salt]	-0.116
CN1[C@@H]2CC[C@H]1C[C@@H](OC(=O)[C@H](CO)c1ccccc1)C2 [L-Hyoscyamine]	-0.0194
CN(C)CCN(C)CCc1ccc(Cl)c(Cl)c1	-0.0638
O=[N+]([O-])c1cc(O)c(O)c([N+](=O)[O-])c1 [3,5-Dinitrocatechol]	-0.239
CN[C@@H]1C[C@@H](c2ccc(Cl)c(Cl)c2)c2ccccc21 [Indatraline hydrochloride]	-0.255
CC12CCC3C(CCC4=C(O)C(=O)CCC43C)C1CCC2=O (stereo unspecified) [4-Androsten-4-ol-3,17-dione]	-0.068
C=C(C)[C@H]1CN[C@H](C(=O)O)[C@H]1CC(=O)O [Kainic acid]	-0.0063
N[C@@H](Cn1ccc(=O)[nH]c1=O)C(=O)O [S(-)-Willardiine]	0.407
c1ccc2c(N3CCNCC3)cccc2c1 [1-(1-Naphthyl)piperazine hydrochloride]	-0.174
CCCN(CCC)CCc1c[nH]c2ccc(C(N)=O)cc12 [N,N-Dipropyl-5-carboxamidotryptamine maleate]	0.0535
O=[N+]([O-])c1ccc2nc(N3CCNCC3)ccc2c1 [Quipazine, 6-nitro-, maleate]	0.0922

Looked up above.
S-phase gammaH2AX median (Z-score), CCCN(CCC)CCc1c[nH]c2ccc(C(N)=O)cc12 [N,N-Dipropyl-5-carboxamidotryptamine maleate] is entered as 0.0535
S-phase gammaH2AX median (Z-score), N=C(N)NN [Aminoguanidine hydrochloride] is entered as -0.0252
S-phase gammaH2AX median (Z-score), C1CCc2nnnn2CC1 [Pentylenetetrazole] is entered as -0.0568
S-phase gammaH2AX median (Z-score), O=[N+]([O-])c1ccc2nc(N3CCNCC3)ccc2c1 [Quipazine, 6-nitro-, maleate] is entered as 0.0922
